Publication PMC3360006
These are yes or no findings as the source states them, for the method shown. Binding seen in cells or lysates may run through a third protein. Some entries that bind do so weakly or less than the wild type.

The chains behind the UniProt entries cited, without tags or fusion partners.
UniProt P61586: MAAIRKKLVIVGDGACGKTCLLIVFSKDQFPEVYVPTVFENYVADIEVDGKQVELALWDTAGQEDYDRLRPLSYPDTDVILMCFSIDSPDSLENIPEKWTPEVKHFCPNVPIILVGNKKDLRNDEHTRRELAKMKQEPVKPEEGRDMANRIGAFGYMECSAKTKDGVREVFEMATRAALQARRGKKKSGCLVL

Biological target: GST-RhoA (UniProt P61586)
Assay: pull-down; GST-RhoA beads loaded with 0.1 mmol/L GTPgammaS (30 °C, 15 min) as bait; incubated with total cellular protein of MDA-MB-231 cells at 4 °C for 90 min; bound Daam1 detected by immunoblotting; cells serum-starved and treated with 500 ng/mL rWnt5a for 0-60 min, or transfected with Dvl2 mutants, Dvl2 siRNA or RhoA constructs; only the target purified

For “Dishevelled-associated activator of morphogenesis 1 (Daam1) (from UniProt Q9Y4D1-1 1-1078)”, the binding was “binds”.
